The target in series [1] is PD-L1 (CD274) displayed on extracellular vesicles (UniProt Q9NZQ7). In words: confocal microscopy of bead-captured EVs. Conditions: 30 min, no fluorescence on beads with PBS instead of EVs, Aptamer in 3% BSA-HEPES, room temperature, after blocking with BSA, salmon sperm DNA (0.5 mg/mL) and 500 mM arginine in HEPES, protein on the cell surface, label: 5' Cy3, single-stranded DNA.

Sequences of proteins named here, by UniProt entry; tags and fusion partners are left off. Residues count along the entry.
UniProt Q9NZQ7, 19-290: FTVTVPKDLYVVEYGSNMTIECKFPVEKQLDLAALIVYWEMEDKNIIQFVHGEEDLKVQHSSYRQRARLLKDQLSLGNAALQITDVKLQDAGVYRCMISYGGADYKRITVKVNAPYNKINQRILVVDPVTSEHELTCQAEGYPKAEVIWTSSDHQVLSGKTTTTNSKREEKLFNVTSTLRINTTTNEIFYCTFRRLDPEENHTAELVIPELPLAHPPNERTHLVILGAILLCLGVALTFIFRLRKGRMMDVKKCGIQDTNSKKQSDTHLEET

Series [2] has the same target. Briefly: bead-captured EV chemiluminescence assay (streptavidin-ALP/CDP-Star). Conditions: Aptamer in 3% BSA-HEPES, room temperature, after blocking with BSA, salmon sperm DNA (0.5 mg/mL) and 500 mM arginine in HEPES, protein on the cell surface, label: 5' biotin, single-stranded DNA.

The exact form of at least one protein or probe is not confirmed. Results from cells or extracts need not show a direct contact. For part of these data: The comparison behind a weaker result is the experiment's own reference, which may not be listed here.

Consider “AAGACGGACCAGCCTTGCCGCAAGACGGACCAGGGATT [Cy3-PD-L1 aptamer]”, for which, in series [1], the binding result is reported as “binds”.

In the case of “AAGACGGACCAGCCTTGCCGCAAGACGGACCAGGGATT [Biotin-PD-L1 aptamer]”, the binding result in series [2] (0.075 uM aptamer, 30 min (optimized), EVs vs PBS blank) is given as “binds”.

Turning to “ACGACATACCGGCCTTTCCGCAAGACGGACCAGGGGT [Biotin-PD-L1-scrambled]”, the binding result in series [2] (lower CL intensity than PD-L1 aptamer, level versus PBS not stated, 30 min) was “binds more weakly”.

Source of the values: PMC9138745.
